The other results are listed elsewhere or left out.
Key:
Assay in all cases: log2 fold change, soluble protein after heating vs DMSO (PISA); higher = thermal stabilisation; K562 cells, 10 uM, 30 min; active = over 0.2 and 3.5 SD of the protein, either way, in both replicates (recomputed)
[1] = compound: CC[C@@H]1C(=O)N(C)c2cnc(Nc3ccc(C(=O)NC4CCN(C)CC4)cc3OC)nc2N1C1CCCC1
How it was run: (§1)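 Soluble protein was defined as the supernatant after 21,000xg for 90 min. It came from K562 cells at 2×10^6 cells/mL given 10 μM compound for 30 min, heated in aliquots for 3 min across 48°C-58°C, pooled, and extracted in PBS with 0.5% NP-40 at 4°C, and was quantified by TMTpro 16plex LC-MS/MS with equalised channel sums. Thermal stability against control samples, from duplicates, is reported as log2 fold change.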

By UniProt entry, the sequences of proteins in these tests, tags left out. Where a name states a change or a piece, a line headed by the entry shows the natural chain unless it says otherwise.
UniProt Q5TFE4: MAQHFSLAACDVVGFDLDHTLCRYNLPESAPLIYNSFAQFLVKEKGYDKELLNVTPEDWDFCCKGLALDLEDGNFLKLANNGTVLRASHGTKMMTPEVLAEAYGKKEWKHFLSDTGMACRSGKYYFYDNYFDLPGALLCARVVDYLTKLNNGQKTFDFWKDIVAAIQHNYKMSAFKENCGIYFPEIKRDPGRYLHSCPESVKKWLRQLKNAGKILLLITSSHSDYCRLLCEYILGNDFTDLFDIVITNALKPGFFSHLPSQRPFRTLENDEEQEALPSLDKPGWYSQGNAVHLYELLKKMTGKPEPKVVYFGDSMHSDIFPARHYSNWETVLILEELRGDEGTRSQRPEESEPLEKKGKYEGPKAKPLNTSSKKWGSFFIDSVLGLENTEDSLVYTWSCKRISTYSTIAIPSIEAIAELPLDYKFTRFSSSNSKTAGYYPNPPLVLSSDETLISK
UniProt Q9BRP4: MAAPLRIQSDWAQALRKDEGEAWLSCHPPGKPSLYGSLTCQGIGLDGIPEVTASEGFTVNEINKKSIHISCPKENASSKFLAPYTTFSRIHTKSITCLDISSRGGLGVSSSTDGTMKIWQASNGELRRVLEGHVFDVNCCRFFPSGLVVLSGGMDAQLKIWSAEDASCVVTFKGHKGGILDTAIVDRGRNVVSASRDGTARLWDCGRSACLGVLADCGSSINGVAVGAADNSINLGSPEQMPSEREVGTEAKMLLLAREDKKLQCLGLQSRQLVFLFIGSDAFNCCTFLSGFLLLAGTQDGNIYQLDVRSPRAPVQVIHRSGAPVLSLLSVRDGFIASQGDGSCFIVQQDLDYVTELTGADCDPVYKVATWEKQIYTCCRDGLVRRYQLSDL
UniProt Q8TEM1: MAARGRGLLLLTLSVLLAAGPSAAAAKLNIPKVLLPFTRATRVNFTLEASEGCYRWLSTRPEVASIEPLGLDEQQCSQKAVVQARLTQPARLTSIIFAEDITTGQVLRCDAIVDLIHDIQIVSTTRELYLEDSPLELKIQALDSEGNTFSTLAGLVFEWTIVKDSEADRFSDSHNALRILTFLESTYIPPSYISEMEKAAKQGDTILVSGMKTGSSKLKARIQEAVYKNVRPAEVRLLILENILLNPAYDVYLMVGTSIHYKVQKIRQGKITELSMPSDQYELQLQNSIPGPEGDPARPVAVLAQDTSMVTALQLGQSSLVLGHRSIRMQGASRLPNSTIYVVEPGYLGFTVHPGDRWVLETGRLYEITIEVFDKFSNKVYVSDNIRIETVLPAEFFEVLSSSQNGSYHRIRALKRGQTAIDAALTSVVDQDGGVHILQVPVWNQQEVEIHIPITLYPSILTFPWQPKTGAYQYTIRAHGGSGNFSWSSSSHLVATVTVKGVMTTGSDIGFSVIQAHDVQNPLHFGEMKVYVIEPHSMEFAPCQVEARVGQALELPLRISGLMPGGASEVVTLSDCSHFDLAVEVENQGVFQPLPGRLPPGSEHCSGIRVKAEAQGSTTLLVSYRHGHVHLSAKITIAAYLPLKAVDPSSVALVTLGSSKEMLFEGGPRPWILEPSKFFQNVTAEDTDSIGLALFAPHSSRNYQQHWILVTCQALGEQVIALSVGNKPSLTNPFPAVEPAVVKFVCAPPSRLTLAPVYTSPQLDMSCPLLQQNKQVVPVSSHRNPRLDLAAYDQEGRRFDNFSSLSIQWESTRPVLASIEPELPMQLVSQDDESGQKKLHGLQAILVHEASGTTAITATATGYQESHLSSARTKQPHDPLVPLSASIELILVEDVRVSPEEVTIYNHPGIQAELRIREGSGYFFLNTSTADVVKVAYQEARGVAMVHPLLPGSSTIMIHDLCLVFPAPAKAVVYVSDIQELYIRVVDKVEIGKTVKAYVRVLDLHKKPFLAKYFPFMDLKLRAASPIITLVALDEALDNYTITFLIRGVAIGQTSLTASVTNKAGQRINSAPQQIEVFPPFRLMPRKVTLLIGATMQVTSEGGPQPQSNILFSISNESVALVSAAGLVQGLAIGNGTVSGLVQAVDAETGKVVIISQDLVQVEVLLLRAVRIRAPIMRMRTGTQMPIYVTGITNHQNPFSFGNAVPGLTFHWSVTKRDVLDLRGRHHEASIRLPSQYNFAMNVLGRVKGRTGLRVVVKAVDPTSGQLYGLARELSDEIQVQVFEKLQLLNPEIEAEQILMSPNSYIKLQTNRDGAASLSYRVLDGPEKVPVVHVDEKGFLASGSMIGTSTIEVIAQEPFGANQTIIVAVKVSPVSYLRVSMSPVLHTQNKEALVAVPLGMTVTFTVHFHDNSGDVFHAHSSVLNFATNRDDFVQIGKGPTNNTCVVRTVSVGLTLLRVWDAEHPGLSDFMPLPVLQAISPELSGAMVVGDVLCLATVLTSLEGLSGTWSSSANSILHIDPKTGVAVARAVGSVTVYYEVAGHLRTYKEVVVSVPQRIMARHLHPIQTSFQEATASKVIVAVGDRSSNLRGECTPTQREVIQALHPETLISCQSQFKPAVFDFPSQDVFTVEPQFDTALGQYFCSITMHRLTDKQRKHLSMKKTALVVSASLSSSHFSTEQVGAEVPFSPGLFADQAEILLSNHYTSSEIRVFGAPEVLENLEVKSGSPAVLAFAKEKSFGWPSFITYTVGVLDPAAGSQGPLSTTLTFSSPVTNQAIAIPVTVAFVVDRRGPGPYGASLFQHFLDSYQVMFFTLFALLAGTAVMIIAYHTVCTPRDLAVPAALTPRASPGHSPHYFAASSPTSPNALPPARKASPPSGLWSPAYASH
UniProt Q9BV86: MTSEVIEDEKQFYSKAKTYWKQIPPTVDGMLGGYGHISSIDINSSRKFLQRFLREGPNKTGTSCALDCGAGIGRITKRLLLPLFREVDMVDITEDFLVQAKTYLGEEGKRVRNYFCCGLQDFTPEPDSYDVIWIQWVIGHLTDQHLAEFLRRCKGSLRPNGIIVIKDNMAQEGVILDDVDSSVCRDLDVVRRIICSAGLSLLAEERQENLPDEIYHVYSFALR
UniProt P04181: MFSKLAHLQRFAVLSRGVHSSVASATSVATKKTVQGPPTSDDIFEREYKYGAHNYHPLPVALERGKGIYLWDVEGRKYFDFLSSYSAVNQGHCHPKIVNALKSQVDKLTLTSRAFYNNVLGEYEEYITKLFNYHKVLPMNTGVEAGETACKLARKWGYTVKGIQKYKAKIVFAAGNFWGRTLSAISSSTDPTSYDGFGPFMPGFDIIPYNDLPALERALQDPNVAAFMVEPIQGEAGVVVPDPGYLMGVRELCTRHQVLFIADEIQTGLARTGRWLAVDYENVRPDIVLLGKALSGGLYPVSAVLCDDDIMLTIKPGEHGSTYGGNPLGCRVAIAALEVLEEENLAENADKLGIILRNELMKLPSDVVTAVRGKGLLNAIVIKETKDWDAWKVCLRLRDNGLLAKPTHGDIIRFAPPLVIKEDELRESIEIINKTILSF
UniProt Q86WC4: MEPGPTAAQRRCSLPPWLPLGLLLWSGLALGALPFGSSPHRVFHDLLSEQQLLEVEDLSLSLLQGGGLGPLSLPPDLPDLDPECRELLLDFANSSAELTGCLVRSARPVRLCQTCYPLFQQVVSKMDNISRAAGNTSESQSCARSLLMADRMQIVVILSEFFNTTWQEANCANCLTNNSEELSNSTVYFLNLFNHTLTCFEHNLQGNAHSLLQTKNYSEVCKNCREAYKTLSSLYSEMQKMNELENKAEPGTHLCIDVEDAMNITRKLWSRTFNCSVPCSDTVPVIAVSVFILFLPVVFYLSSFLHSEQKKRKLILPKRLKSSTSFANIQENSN
UniProt Q9NWU1, whole entry, looked up: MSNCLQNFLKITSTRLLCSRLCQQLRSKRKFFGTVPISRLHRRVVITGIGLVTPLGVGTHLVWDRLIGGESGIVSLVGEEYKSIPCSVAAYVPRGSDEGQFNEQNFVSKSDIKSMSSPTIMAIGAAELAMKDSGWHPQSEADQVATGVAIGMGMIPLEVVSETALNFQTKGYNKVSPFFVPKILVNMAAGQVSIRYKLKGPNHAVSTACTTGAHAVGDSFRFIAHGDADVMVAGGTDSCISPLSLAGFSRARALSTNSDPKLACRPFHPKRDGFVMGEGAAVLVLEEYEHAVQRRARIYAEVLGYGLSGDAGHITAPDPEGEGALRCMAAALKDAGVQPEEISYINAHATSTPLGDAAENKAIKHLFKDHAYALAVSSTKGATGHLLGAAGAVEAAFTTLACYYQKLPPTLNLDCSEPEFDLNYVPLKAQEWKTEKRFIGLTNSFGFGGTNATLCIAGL
UniProt Q96BN8, whole entry, looked up: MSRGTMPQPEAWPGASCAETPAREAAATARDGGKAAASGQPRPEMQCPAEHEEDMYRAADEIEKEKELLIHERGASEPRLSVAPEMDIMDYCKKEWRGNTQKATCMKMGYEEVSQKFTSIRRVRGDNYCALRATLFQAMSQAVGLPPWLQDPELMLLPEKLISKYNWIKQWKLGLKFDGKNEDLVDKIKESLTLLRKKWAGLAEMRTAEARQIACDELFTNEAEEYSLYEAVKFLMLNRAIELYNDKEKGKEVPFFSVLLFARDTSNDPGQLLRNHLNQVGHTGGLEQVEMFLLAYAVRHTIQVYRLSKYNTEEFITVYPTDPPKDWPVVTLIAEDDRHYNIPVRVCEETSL
UniProt Q6N063: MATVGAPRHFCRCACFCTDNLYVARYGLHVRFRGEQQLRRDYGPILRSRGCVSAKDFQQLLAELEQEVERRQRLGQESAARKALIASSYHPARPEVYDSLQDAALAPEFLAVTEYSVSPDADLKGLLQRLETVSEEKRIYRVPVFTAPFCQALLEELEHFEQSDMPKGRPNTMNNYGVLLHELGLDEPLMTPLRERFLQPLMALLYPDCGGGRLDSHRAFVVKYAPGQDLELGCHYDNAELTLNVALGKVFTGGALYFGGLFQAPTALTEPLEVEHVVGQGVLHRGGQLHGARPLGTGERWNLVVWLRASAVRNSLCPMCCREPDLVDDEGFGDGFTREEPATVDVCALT
UniProt Q9BW27: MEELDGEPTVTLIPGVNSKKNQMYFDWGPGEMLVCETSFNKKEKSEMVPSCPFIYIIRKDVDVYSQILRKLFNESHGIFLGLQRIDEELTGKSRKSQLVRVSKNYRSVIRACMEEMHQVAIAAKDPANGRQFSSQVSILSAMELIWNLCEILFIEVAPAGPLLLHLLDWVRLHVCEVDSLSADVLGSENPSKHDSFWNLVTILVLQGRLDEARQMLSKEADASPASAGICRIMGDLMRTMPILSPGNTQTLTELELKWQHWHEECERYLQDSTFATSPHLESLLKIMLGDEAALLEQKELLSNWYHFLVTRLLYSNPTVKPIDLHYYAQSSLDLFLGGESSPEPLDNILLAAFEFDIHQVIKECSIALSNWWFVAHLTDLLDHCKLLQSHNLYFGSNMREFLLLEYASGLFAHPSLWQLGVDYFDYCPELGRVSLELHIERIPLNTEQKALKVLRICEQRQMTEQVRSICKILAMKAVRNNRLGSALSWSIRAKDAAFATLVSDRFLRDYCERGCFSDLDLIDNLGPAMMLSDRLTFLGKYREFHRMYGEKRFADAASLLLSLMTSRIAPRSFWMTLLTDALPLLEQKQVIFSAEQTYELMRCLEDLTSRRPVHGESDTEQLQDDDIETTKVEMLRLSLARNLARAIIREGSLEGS
UniProt Q8N138: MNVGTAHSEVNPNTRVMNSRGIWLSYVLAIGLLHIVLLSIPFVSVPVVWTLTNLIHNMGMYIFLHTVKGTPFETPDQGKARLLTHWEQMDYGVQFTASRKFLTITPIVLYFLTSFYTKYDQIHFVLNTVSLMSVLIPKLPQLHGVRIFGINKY
UniProt O15381: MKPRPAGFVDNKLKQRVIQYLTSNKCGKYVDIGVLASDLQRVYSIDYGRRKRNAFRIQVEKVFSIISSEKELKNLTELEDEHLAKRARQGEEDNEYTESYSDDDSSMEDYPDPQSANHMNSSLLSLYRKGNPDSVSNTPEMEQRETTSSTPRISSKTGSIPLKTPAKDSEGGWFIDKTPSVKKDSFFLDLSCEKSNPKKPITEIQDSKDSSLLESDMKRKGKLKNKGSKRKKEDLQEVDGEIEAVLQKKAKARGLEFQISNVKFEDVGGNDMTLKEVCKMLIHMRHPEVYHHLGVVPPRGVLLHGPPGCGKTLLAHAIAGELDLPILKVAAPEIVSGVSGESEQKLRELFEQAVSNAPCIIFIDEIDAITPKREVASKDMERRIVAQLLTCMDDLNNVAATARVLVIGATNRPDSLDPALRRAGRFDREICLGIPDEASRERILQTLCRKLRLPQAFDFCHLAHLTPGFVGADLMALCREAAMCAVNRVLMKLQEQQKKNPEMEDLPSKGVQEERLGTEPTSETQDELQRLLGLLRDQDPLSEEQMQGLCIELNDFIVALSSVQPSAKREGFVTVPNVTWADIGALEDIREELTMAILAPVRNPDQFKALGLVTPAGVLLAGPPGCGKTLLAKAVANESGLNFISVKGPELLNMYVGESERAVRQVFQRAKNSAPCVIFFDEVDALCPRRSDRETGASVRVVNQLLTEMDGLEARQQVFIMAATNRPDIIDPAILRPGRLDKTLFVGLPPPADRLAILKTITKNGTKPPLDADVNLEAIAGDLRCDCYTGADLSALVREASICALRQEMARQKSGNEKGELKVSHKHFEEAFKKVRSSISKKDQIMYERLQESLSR

volasertib = compound: CC[C@@H]1C(=O)N(C)c2cnc(Nc3ccc(C(=O)N[C@H]4CC[C@H](N5CCN(CC6CC6)CC5)CC4)cc3OC)nc2N1C(C)C [volasertib]
How it was run: as §1

[2] = compound: CC[C@H](C)N1C=C(C2=C(C=C(C=C21)C3=CN=C(C=C3)N4CCNCC4)C(=O)NCC5=C(C=C(NC5=O)C)C)C
How it was run: as §1

epoxomicin = compound: CC[C@H](C)[C@@H](C(=O)N[C@@H]([C@@H](C)O)C(=O)N[C@@H](CC(C)C)C(=O)[C@]1(CO1)C)NC(=O)[C@H]([C@@H](C)CC)N(C)C(=O)C [epoxomicin]
How it was run: as §1

[3] = compound: CCn1cc(-c2ccnc3[nH]c(-c4cccc(CN(C)C)c4)cc23)c(-c2ccc(NC(=O)N(C)C)cc2)n1
How it was run: as §1

[4] = compound: CN(C)CC(=O)Nc1ccc2[nH]c(=O)c3ccccc3c2c1
How it was run: as §1

[5] = compound: CN1C2=C(C3=C1C(=O)N(N=C3)CC4=CC(=CC=C4)N)SC(=C2)S(=O)C
How it was run: as §1

[6] = compound: CN1CCC(CNc2ccc3ncc(-c4cccc(OC(F)(F)F)c4)n3n2)CC1
How it was run: as §1

saracatinib = compound: CN1CCN(CCOc2cc(OC3CCOCC3)c3c(Nc4c(Cl)ccc5c4OCO5)ncnc3c2)CC1 [saracatinib]
How it was run: as §1

sotrastaurin = compound: CN1CCN(c2nc(C3=C(c4c[nH]c5ccccc45)C(=O)NC3=O)c3ccccc3n2)CC1 [sotrastaurin]
How it was run: as §1

Tubastatin A = compound: CN1CCc2c(c3ccccc3n2Cc2ccc(C(=O)NO)cc2)C1 [Tubastatin A]
How it was run: as §1

[7] = compound: CNC(=O)C1=CC=CC=C1NC2=NC(=NC=C2Cl)NC3=C(C=C(C=C3)N4CCOCC4)OC
How it was run: as §1

defactinib = compound: CNC(=O)c1ccc(Nc2ncc(C(F)(F)F)c(NCc3nccnc3N(C)S(C)(=O)=O)n2)cc1 [defactinib]
How it was run: as §1

rucaparib = compound: CNCc1ccc(-c2[nH]c3cc(F)cc4c3c2CCNC4=O)cc1 [rucaparib]
How it was run: as §1

[8] = compound: CNc1nc(-c2ccc3c(N)n[nH]c3c2)cc(N2C[C@@H](C(=O)NC3CCCCC3)CC[C@H]2C)n1
How it was run: as §1

encorafenib = compound: COC(=O)N[C@@H](C)CNc1nccc(-c2cn(C(C)C)nc2-c2cc(Cl)cc(NS(C)(=O)=O)c2F)n1 [encorafenib]
How it was run: as §1

[9] = compound: COC(=O)[C@H](CCSC)NC(=O)C1=C(C=C(C=C1)NC[C@H](CS)N)C2=CC=CC=C2
How it was run: as §1

[10] = compound: CCn1c(C(=O)N(C2CC2)C2CC2)cc2c3c(ncn3C)c(Nc3cc(C)n(C)n3)nc21
How it was run: as §1

rosiglitazone = compound: CN(CCOC1=CC=C(C=C1)C[C@H]2C(=O)NC(=O)S2)C3=CC=CC=N3 (racemic) [rosiglitazone]
How it was run: as §1

alvocidib = compound: CN1CC[C@H](c2c(O)cc(O)c3c(=O)cc(-c4ccccc4Cl)oc23)[C@H](O)C1 [alvocidib]
How it was run: as §1

Row | Target | log2 fold change [1] | log2 fold change (volasertib) | log2 fold change [2] | log2 fold change (epoxomicin) | log2 fold change [3] | log2 fold change [4] | log2 fold change [5] | log2 fold change [6] | log2 fold change (saracatinib) | log2 fold change (sotrastaurin) | log2 fold change (Tubastatin A) | log2 fold change [7] | log2 fold change (defactinib) | log2 fold change (rucaparib) | log2 fold change [8] | log2 fold change (encorafenib) | log2 fold change [9] | log2 fold change [10] | log2 fold change (rosiglitazone) | log2 fold change (alvocidib)
1 | NT5DC1 (UniProt Q5TFE4) | inactive: 0.165 | inactive: 0.051 | inactive: -0.026 | inactive: 0.045 | inactive: -0.054 | inactive: 0.014 | inactive: -0.037 | inactive: -0.063 | inactive: -0.012 | inactive: 0.026 | inactive: 0 | inactive: 0.115 | inactive: -0.004 | inactive: -0.057 | inactive: -0.058 | inactive: -0.029 | inactive: 0.037 |  |  | 
2 | PAAF1 (UniProt Q9BRP4) | inactive: 0.006 | inactive: -0.034 | inactive: -0.021 | active: -0.275 | inactive: -0.051 | inactive: -0.009 | inactive: -0.07 | inactive: -0.039 | inactive: 0.056 | inactive: 0.016 | inactive: -0.008 | inactive: -0.006 | inactive: -0.034 | inactive: 0.012 | inactive: -0.008 | inactive: -0.004 | inactive: 0.004 |  |  | 
3 | NUP210 (UniProt Q8TEM1) | inactive: -0.001 | inactive: -0.12 | inactive: 0 | inactive: 0.03 | inactive: -0.053 | inactive: 0.03 | inactive: -0.026 | active: -0.348 | inactive: 0.017 | inactive: -0.019 | inactive: -0.003 | inactive: -0.147 | inactive: -0.021 | inactive: -0.039 | inactive: -0.07 | inactive: 0.027 | inactive: -0.035 |  |  | 
4 | NTMT1 (UniProt Q9BV86) | inactive: -0.047 | inactive: -0.004 | inactive: 0.051 | inactive: 0.092 | inactive: -0.141 | inactive: 0.081 | inactive: -0.037 | inactive: 0.099 | inactive: -0.048 | inactive: 0.055 | inactive: -0.071 | inactive: -0.032 | inactive: -0.081 | inactive: 0.169 | inactive: 0.184 | inactive: 0.06 | inactive: -0.157 |  |  | 
5 | OAT (UniProt P04181) | inactive: 0.049 | inactive: 0.1 | inactive: 0.021 | inactive: 0.043 | inactive: -0.1 | inactive: 0.004 | inactive: -0.102 | inactive: -0.164 | inactive: -0.002 | inactive: -0.016 | inactive: 0.013 | inactive: 0.084 | inactive: -0.058 | inactive: -0.047 | inactive: -0.04 | inactive: -0.061 | inactive: 0.024 |  |  | 
6 | OSTM1 (UniProt Q86WC4) | inactive: -0.216 | inactive: -0.169 | inactive: 0.058 | inactive: 0.107 | inactive: -0.215 | inactive: -0.072 | inactive: 0.035 | inactive: -0.064 | inactive: -0.038 | inactive: 0.007 | inactive: 0.031 | inactive: 0.19 | inactive: -0.048 | inactive: -0.015 | inactive: -0.086 | inactive: 0.022 | inactive: 0.002 |  |  | 
7 | NUDT1 (UniProt P36639) | active: 0.971 | active: 1.35 | inactive: -0.012 | inactive: -0.039 | inactive: -0.19 | inactive: 0.06 | inactive: -0.088 | inactive: 0.157 | inactive: 0.068 | inactive: 0.043 | inactive: 0.193 | inactive: 0.05 | inactive: 0.019 | inactive: 0.416 | inactive: 0.196 | inactive: -0.03 | inactive: -0.074 |  |  | 
8 | OXSM (UniProt Q9NWU1) | inactive: -0.063 | inactive: -0.017 | inactive: -0.022 | inactive: 0.018 | inactive: -0.003 | inactive: -0.005 | inactive: -0.025 | inactive: 0.058 | inactive: 0.095 | inactive: 0.067 | inactive: -0.01 | inactive: 0.038 | inactive: -0.059 | inactive: -0.018 | inactive: -0.033 | inactive: -0.007 | inactive: -0.019 |  |  | 
9 | OTULIN (UniProt Q96BN8) | inactive: 0.045 | inactive: -0.331 | inactive: 0.074 | inactive: 0.037 | inactive: -0.084 | inactive: 0.054 | inactive: 0.015 | inactive: -0.226 | inactive: -0.029 | inactive: -0.044 | inactive: 0.019 | inactive: -0.009 | inactive: -0.029 | inactive: 0.02 | inactive: -0.053 | inactive: -0.012 | inactive: -0.012 |  |  | 
10 | OGFOD2 (UniProt Q6N063) | inactive: -0.007 |  | inactive: -0.019 | inactive: 0.08 | active: -0.372 | inactive: 0.035 | inactive: 0.147 | inactive: -0.112 | inactive: 0.095 |  | inactive: -0.08 | inactive: 0.094 | inactive: -0.076 | inactive: -0.029 | inactive: 0.009 | inactive: 0.133 | inactive: 0.032 |  |  | 
11 | NUP85 (UniProt Q9BW27) | inactive: -0.158 | active: -0.561 | inactive: -0.008 | inactive: 0.022 | inactive: -0.01 | inactive: -0.004 | inactive: -0.038 | inactive: -0.045 | inactive: 0.027 | inactive: -0.026 | inactive: -0.001 | inactive: -0.021 | inactive: -0.097 | inactive: -0.047 | inactive: -0.034 | inactive: 0.025 | inactive: 0.003 |  |  | 
12 | ORMDL3 (UniProt Q8N138) |  | inactive: -0.283 |  |  |  |  |  |  |  |  |  | inactive: -0.14 |  |  |  |  |  | inactive: 0.024 |  | 
13 | NVL (UniProt O15381) |  |  |  |  | inactive: -0.062 |  |  | inactive: 0.088 |  |  |  |  |  |  |  |  |  |  | inactive: 0.099 | 
14 | NUDT5 (UniProt C9JYY9) |  |  |  | inactive: -0.182 | inactive: -0.091 | inactive: -0.096 | inactive: 0.02 | inactive: -0.022 | inactive: -0.103 | inactive: -0.12 | inactive: 0.161 | inactive: -0.386 | inactive: 0.077 |  | inactive: -0.001 |  | inactive: 0.137 | inactive: -0.08 | inactive: -0.022 | inactive: 0.173

Just log2 fold change (volasertib), for some of the entries so far:
Row	Target	log2 fold change (volasertib)
6	OSTM1 (UniProt Q86WC4)	inactive: -0.169
11	NUP85 (UniProt Q9BW27)	active: -0.561

Reference: the supplement of paper PMC10849652
